Assay results: the supplement of paper PMC8728848
The other results are listed elsewhere or left out.

Columns and labels:
Test in all cases: glycan array binding signal (z-score within array); higher = stronger binding
Details in all cases: glycan notation: IUPAC condensed, linker removed
[1] = target: Man(a1-3)[Man(a1-6)]Man(a1-6)[Man(a1-2)Man(a1-3)]Man(b1-4)GlcNAc(b1-4)GlcNAc
How it was run: (§1)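 Glycan array data were curated from 3228 arrays in the Consortium for Functional Glycomics database and kept only where the protein sequence was available. Glycan names were converted to IUPAC-condensed notation, and columns mapping to the same glycan were averaged. The binding signal is a within-array Z-score, averaged across arrays of the same protein sequence at different concentrations or buffers and across linkers. Negative Z-scores can be read as non-binding.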

[2] = target: Man(a1-3)[Man(a1-6)]Man(a1-6)[Man(a1-3)]Man
How it was run: as §1

[3] = target: Man(a1-3)[Man(a1-6)]Man(a1-6)[Man(a1-3)]Man(b1-4)GlcNAc(b1-4)GlcNAc
How it was run: as §1

[4] = target: Man(a1-3)[Man(a1-6)]Man(b1-4)GlcNAc(b1-4)GlcNAc
How it was run: as §1

Man(a1-6)Man = target: Man(a1-6)Man
How it was run: as §1

Man(b1-4)GlcNAc = target: Man(b1-4)GlcNAc
How it was run: as §1

Neu5Ac(a2-3)Gal = target: Neu5Ac(a2-3)Gal
How it was run: as §1

[5] = target: Neu5Ac(a2-3)Gal(b1-3)GalNAc
How it was run: as §1

[6] = target: Neu5Ac(a2-3)Gal(b1-3)GalNAc(b1-3)Gal(a1-4)Gal(b1-4)Glc
How it was run: as §1

[7] = target: Neu5Ac(a2-3)Gal(b1-3)GalNAc(b1-3)Gal(b1-4)GlcNAc
How it was run: as §1

[8] = target: Neu5Ac(a2-3)Gal(b1-3)GalNAc(b1-4)[Neu5Ac(a2-3)]Gal(b1-4)Glc
How it was run: as §1

[9] = target: Neu5Ac(a2-3)Gal(b1-3)GalNAc6S
How it was run: as §1

[10] = target: Neu5Ac(a2-3)Gal(b1-3)GlcNAc
How it was run: as §1

[11] = target: Neu5Ac(a2-3)Gal(b1-3)GlcNAc(b1-3)Gal(b1-3)GlcNAc
How it was run: as §1

[12] = target: Neu5Ac(a2-3)Gal(b1-3)GlcNAc6S
How it was run: as §1

[13] = target: Neu5Ac(a2-3)Gal(b1-3)[Fuc(a1-4)]GlcNAc
How it was run: as §1

[14] = target: Neu5Ac(a2-3)Gal(b1-3)[Fuc(a1-4)]GlcNAc(b1-3)Gal(b1-4)[Fuc(a1-3)]GlcNAc
How it was run: as §1

[15] = target: Neu5Ac(a2-3)Gal(b1-3)[Neu5Ac(a2-3)Gal(b1-4)]GlcNAc
How it was run: as §1

[16] = target: Neu5Ac(a2-3)Gal(b1-3)[Neu5Ac(a2-6)]GalNAc
How it was run: as §1

Neu5Ac(a2-3)Gal(b1-4)Glc = target: Neu5Ac(a2-3)Gal(b1-4)Glc
How it was run: as §1

[17] = target: Neu5Ac(a2-3)Gal(b1-4)GlcNAc
How it was run: as §1

[18] = target: Neu5Ac(a2-3)Gal(b1-4)GlcNAc(b1-2)Man(a1-3)[GlcNAc(b1-2)Man(b1-4)GlcNAc(b1-2)Man(a1-6)]Man(b1-4)GlcNAc(b1-4)GlcNAc
How it was run: as §1

[19] = target: Neu5Ac(a2-3)Gal(b1-4)GlcNAc(b1-2)Man(a1-3)[Neu5Ac(a2-6)Gal(b1-4)GlcNAc(b1-2)Man(a1-6)]Man(b1-4)GlcNAc(b1-4)GlcNAc
How it was run: as §1

[20] = target: Neu5Ac(a2-3)Gal(b1-4)GlcNAc(b1-3)Gal(b1-3)GlcNAc
How it was run: as §1

[21] = target: Neu5Ac(a2-3)Gal(b1-4)GlcNAc(b1-3)Gal(b1-4)GlcNAc
How it was run: as §1

[22] = target: Neu5Ac(a2-3)Gal(b1-4)GlcNAc(b1-3)Gal(b1-4)GlcNAc(b1-3)Gal(b1-4)GlcNAc
How it was run: as §1

[23] = target: Neu5Ac(a2-3)Gal(b1-4)GlcNAc(b1-3)Gal(b1-4)[Fuc(a1-3)]GlcNAc
How it was run: as §1

[24] = target: Neu5Ac(a2-3)Gal(b1-4)GlcNAc(b1-6)[Gal(b1-3)]GalNAc
How it was run: as §1

[25] = target: Neu5Ac(a2-3)Gal(b1-4)GlcNAc(b1-6)[Neu5Ac(a2-3)Gal(b1-3)]GalNAc
How it was run: as §1

[26] = target: Neu5Ac(a2-3)Gal(b1-4)GlcNAc6S
How it was run: as §1

[27] = target: Neu5Ac(a2-3)Gal(b1-4)[Fuc(a1-3)]GlcNAc
How it was run: as §1

[28] = target: Neu5Ac(a2-3)Gal(b1-4)[Fuc(a1-3)]GlcNAc(b1-3)Gal
How it was run: as §1

[29] = target: Neu5Ac(a2-3)Gal(b1-4)[Fuc(a1-3)]GlcNAc(b1-3)Gal(b1-4)GlcNAc
How it was run: as §1

[30] = target: Neu5Ac(a2-3)Gal(b1-4)[Fuc(a1-3)]GlcNAc(b1-3)Gal(b1-4)[Fuc(a1-3)]GlcNAc(b1-3)Gal(b1-4)[Fuc(a1-3)]GlcNAc
How it was run: as §1

[31] = target: Neu5Ac(a2-3)Gal(b1-4)[Fuc(a1-3)]GlcNAc(b1-6)[Gal(b1-3)]GalNAc
How it was run: as §1

[32] = target: Neu5Ac(a2-3)Gal(b1-4)[Fuc(a1-3)]GlcNAc6S
How it was run: as §1

[33] = target: Neu5Ac(a2-3)Gal6S(b1-4)GlcNAc
How it was run: as §1

[34] = target: Neu5Ac(a2-3)Gal6S(b1-4)[Fuc(a1-3)]GlcNAc
How it was run: as §1

Neu5Ac(a2-3)GalNAc = target: Neu5Ac(a2-3)GalNAc
How it was run: as §1

[35] = target: Neu5Ac(a2-3)GalNAc(b1-4)GlcNAc
How it was run: as §1

[36] = target: Neu5Ac(a2-3)[GalNAc(b1-4)]Gal(b1-4)Glc
How it was run: as §1

[37] = target: Neu5Ac(a2-3)[GalNAc(b1-4)]Gal(b1-4)GlcNAc
How it was run: as §1

[38] = target: Neu5Ac(a2-3)[Neu5Ac(a2-6)]GalNAc
How it was run: as §1

Neu5Ac(a2-6)Gal = target: Neu5Ac(a2-6)Gal
How it was run: as §1

Neu5Ac(a2-6)Gal(b1-4)Glc = target: Neu5Ac(a2-6)Gal(b1-4)Glc
How it was run: as §1

B1: TbCVNHOa (Tuber borchii), Q5MK11 (protein)
chain: MSYADSSRNAVLTNGGRTLRAECRNADGNWVTSELDLDTCIGNPNGFLGWGMQNFSHSSEDIKLEEGGRKLTCRPKTVDGGFRERQGIDLNRIQNVNGRLVFQ
- glycan array binding signal (z-score) [1]: -0.025
- glycan array binding signal (z-score) [2]: -0.458
- glycan array binding signal (z-score) [3]: -0.22
- glycan array binding signal (z-score) [4]: -0.062
- glycan array binding signal (z-score) (Man(a1-6)Man): -0.516
- glycan array binding signal (z-score) (Man(b1-4)GlcNAc): -0.533
- glycan array binding signal (z-score) (Neu5Ac(a2-3)Gal): -0.083
- glycan array binding signal (z-score) [5]: -0.506
- glycan array binding signal (z-score) [6]: -0.488
- glycan array binding signal (z-score) [7]: -0.517
- glycan array binding signal (z-score) [8]: -0.471
- glycan array binding signal (z-score) [9]: -0.479
- glycan array binding signal (z-score) [10]: -0.483
- glycan array binding signal (z-score) [11]: -0.278
- glycan array binding signal (z-score) [12]: -0.765
- glycan array binding signal (z-score) [13]: -0.529
- glycan array binding signal (z-score) [14]: -0.397
- glycan array binding signal (z-score) [15]: -0.412
- glycan array binding signal (z-score) [16]: -0.16
- glycan array binding signal (z-score) (Neu5Ac(a2-3)Gal(b1-4)Glc): 0.776
- glycan array binding signal (z-score) [17]: -0.264
- glycan array binding signal (z-score) [18]: -0.165
- glycan array binding signal (z-score) [19]: 0.05
- glycan array binding signal (z-score) [20]: -0.358
- glycan array binding signal (z-score) [21]: -0.27
- glycan array binding signal (z-score) [22]: -0.329
- glycan array binding signal (z-score) [23]: -0.411
- glycan array binding signal (z-score) [24]: -0.282
- glycan array binding signal (z-score) [25]: -0.718
- glycan array binding signal (z-score) [26]: -0.522
- glycan array binding signal (z-score) [27]: -0.351
- glycan array binding signal (z-score) [28]: -0.429
- glycan array binding signal (z-score) [29]: 0.562
- glycan array binding signal (z-score) [30]: -0.439
- glycan array binding signal (z-score) [31]: 0.487
- glycan array binding signal (z-score) [32]: -0.161
- glycan array binding signal (z-score) [33]: -0.344
- glycan array binding signal (z-score) [34]: -0.025
- glycan array binding signal (z-score) (Neu5Ac(a2-3)GalNAc): -0.127
- glycan array binding signal (z-score) [35]: -0.428
- glycan array binding signal (z-score) [36]: -0.137
- glycan array binding signal (z-score) [37]: -0.358
- glycan array binding signal (z-score) [38]: -0.409
- glycan array binding signal (z-score) (Neu5Ac(a2-6)Gal): -0.145
- glycan array binding signal (z-score) (Neu5Ac(a2-6)Gal(b1-4)Glc): -0.206
